From patent US8163746B2, “Azolecarboxamide derivative” (Astellas Pharma Inc., priority 2006, dated 2012)

Amino acid sequences for entries named in this document (tags omitted). Residues count along the entry.
UniProt P04629, 33-796 limits assumed: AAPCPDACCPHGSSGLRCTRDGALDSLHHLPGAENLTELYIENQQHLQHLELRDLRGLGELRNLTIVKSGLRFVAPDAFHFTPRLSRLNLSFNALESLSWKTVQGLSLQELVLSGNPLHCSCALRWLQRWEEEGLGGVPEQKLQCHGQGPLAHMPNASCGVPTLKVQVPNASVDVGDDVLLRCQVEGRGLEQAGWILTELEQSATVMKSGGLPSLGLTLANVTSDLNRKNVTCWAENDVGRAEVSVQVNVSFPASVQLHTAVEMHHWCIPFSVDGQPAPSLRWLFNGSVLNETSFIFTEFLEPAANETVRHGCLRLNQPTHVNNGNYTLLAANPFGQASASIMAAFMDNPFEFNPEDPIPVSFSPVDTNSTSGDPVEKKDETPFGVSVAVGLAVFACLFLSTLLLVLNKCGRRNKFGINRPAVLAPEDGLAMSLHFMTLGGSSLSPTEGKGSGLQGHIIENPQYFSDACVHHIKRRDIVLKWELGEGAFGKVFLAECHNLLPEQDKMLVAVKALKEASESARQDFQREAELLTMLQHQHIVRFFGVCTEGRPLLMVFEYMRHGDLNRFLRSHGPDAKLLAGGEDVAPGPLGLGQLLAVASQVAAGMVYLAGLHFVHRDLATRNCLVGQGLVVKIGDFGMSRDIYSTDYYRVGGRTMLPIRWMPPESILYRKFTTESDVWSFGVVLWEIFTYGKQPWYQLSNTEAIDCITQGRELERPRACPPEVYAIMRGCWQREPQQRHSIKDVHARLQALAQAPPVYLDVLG
UniProt P35739, 33-799 limits assumed: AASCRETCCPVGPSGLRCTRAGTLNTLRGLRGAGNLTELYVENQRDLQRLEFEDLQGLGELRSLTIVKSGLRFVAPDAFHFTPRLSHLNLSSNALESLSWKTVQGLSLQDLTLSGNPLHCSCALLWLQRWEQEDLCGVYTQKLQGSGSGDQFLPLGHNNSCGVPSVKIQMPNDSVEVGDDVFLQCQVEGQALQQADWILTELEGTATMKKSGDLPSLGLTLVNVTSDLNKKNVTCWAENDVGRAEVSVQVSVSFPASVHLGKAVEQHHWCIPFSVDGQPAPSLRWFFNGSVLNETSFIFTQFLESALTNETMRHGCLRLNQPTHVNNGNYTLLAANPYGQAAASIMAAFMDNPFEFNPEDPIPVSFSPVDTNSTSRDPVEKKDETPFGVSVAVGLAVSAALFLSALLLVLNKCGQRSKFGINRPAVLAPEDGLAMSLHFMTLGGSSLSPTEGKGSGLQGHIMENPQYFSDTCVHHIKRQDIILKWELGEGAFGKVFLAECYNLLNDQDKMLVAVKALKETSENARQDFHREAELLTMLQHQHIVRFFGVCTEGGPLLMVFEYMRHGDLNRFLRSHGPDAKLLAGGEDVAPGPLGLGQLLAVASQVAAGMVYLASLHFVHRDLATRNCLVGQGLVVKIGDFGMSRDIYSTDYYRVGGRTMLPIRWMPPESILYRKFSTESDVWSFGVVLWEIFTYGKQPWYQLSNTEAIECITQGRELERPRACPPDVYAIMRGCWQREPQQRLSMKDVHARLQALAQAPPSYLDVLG

Tests used:
[1] = molecular target: Human nerve growth factor receptor (Homo sapiens, UniProt P04629); experiment: Receptor inhibitory activity using cells expressing a nerve growth factor receptor (NGF-dependent intracellular Ca increase, FLIPR); conditions: HEK293 cells stably expressing Human nerve growth factor receptor; NGF about 100 to 150 ng/ml; Ca concentration change
Protocol: 1. Experiment to Measure a Receptor Inhibitory Activity Using Cells Expressing a Nerve Growth Factor Receptor
The nerve growth factor receptor inhibitory activity was measured by using the increase in a ligand-dependent calcium concentration in cells as an index. HEK293 cells (American Type Culture Collection) that stably expressed Human nerve growth factor receptor were dispensed onto a 96-well poly-D-lysine-coated plate (Product Name: Biocoat, PDL96W black/clear, by Nippon Becton Dickinson) to a 2×10^4 cells/well at the day before the experiment, and incubated overnight at 37° C. under 5% carbon dioxide (CO2) in a culture medium containing 10% fetal bovine serum (FBS) (Product Name: DMEM, Invitrogen Corporation). The culture medium was replaced by a washing solution: a Hank's balanced salt solution)(HBSS), containing a 1.5 μM loading buffer (fluorescent indicator (Product Name: Fluo-4-AM, […].)), 20 mM 2-[4-(2-hydroxyethyl)-1-piperazinyl]ethanesulfonic acid (HEPES)-sodium hydroxide (NaOH), 2.5 mM Probenecid, 0.1% bovine serum albumin (BSA), and left to stand at room temperature for 3 hours, and the cells were washed using a plate washer (Product Name: ELx405, BIO-TEK instrument Corporation) in which a washing solution had been set up. The compound that had been preliminarily dissolved and diluted in a washing solution was added thereto, and set up in a system for measuring a calcium (Ca) concentration in a cell (Product Name: FLIPR, Molecular Devices Corporation). After 5 minutes, a nerve growth factor (NGF, mouse derived 2.5S, Alomone) corresponding on 80% stimulation of a maximum response was added (to a final concentration of about 100 to 150 ng/ml) to measure the change in Ca concentrations in cells. A difference between a maximum value and a minimum value in Ca concentrations in cells was determined, and kept as measurement data. With a response upon addition of NGF being set at 0%, and a response upon addition of a buffer being set at 100%, the concentration causing 50% inhibition was determined as an IC50 value. In the table, Ex represents Compound No. of Examples as described later. From the results of this test, it was confirmed that the compound of the present invention has a nerve growth factor receptor inhibitory activity.

trkA receptor = trkA receptor (Rattus norvegicus, UniProt P35739); experiment: Inhibitory activity on enhanced vascular permeability caused by NGF in rat (Evans blue); conditions: Wistar female rat, 10 mg/kg oral, NGF intracutaneous 60 min after administration, vehicle group set at 100%
Protocol: 2. Evaluation of the Inhibitory Activity of the Compound on Enhanced Vascular Permeability Caused by NGF in Rat
The in vivo trkA receptor inhibitory activity of the compound was examined. A Wistar female rat (SLC) were forced to be orally administered with the compound (0.5% methylcellulose solution) 10 mg/3 ml/kg or a vehicle (0.5% methylcellulose solution) 3 ml/kg. Under ether anesthesia performed at 60 min after administration, physiological saline or 1 ug/ml NGF (NGF, mouse derived 2.5S, Alomone) was intracutaneously administered to the back at 50 ul/site, and then immediately a 1% Evans blue solution (dissolved in physiological saline) was administered through caudal vein at 3 ml/kg. At a time point of 10 min after the administration, the skin on the back was taken, and shaken in formamide for 16 hours. After shaking, an absorption of Evans blue extracted with formamide was measured by an absorption meter (wavelength: 620 nm), and the concentration was determined by a calibration curve method. A value obtained by subtracting the concentration of Evans blue at a site administered with physiological saline from the concentration of Evans blue at a site administered with NGF has a function dependent on NGF, and an inhibitory rate of the compound group was determined with a group administered with vehicle being set at 100%. […]

[2] = test system: CPA-induced urinary frequency in rat; experiment: Effects on cyclophosphamide (CPA)-induced urinary frequency in rat; conditions: Wistar female rat, 2 days after CPA; dose 10 mg/kg oral; evaluation 30-90 min after administration; value before administration = 100%
Protocol: 3. Effects of the Compound on the Cyclophosphamide (CPA)-Induced Urinary Frequency in Rat
CPA (150 mg/5 ml/kg) was intraperitoneally administered to a Wistar female rat (Charles river laboratories), and after two days, the experiment was carried out. It was forced to be orally administered with distilled water (30 ml/kg), and then placed in a metabolic cage, and the voided urine weight and the urination frequency were continuously measured for 1 hour. The compound (0.5% methylcellulose solution) 3 or 10 mg/5 ml/kg, or a vehicle (0.5% methylcellulose solution) 5 ml/kg was orally administered, and after 5 to 30 min, the urinary functions were measured after loading water in the same manner as described above. A total voided urine weight was divided by the total urination frequency to determine an effective bladder capacity. With the value before administration of the compound being set at 100%, a rate of change in the effective bladder capacity caused by administration of the compound was determined.
In this test, at 2 days after CPA treatment, the effective bladder capacity was decreased (about 0.5 ml), indicating urinary frequency condition.

| IC50 [1] | Inhibition rate (trkA receptor) | Structure (SMILES) | Change rate of effective bladder capacity [2] |
| --- | --- | --- | --- |
| 4.7 nM |  | NC(=O)C1CCN(c2ccccc2NC(=O)c2csc(-c3ccccc3)n2)C1 (stereo not drawn) |  |
| 2.4 nM |  | O=C(Nc1ccccc1N1CCC(O)CC1)c1coc(-c2ccccc2)n1 |  |
| 4.3 nM |  | COC(=O)Cc1ccc(NC(=O)c2csc(-c3ccccc3)n2)c(N2CCN(CC(N)=O)CC2)c1 |  |
| 2.3 nM | 91% | NC(=O)C1CCN(c2ccccc2NC(=O)c2coc(N3CCOCC3)n2)CC1 | 177% |

Structures were worked out from names or drawings and are uncertain.
